In the supplement of paper PMC4604168 (melanoma cell lines):
This is one part of the list. Single values are uncertain, as repeats are few or missing.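 Cells were imaged in 1,536-well plates, and nuclei stained with an antibody against cleaved PARP were counted against all DNA-stained nuclei to give the apoptosis fraction. Screening doses were chosen to leave most cells alive, and resting and induced cleaved-PARP levels differ strongly between cell lines.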

How the values were obtained:
Assay in all cases: cleaved PARP positive nuclei fraction relative to DMSO control; melanoma cells; higher = more apoptosis
Settings in all cases: library dose: low library concentration; 72 h
[1] = test system: MZ2-MEL
[2] = test system: MeWo
[3] = test system: RPMI7951
[4] = test system: RVH-421
[5] = test system: SkMel28
[6] = test system: SkMel2
[7] = test system: SkMel30
[8] = test system: SkMel5
[9] = test system: UACC257
[10] = test system: UACC62

SMILES	cleaved PARP positive nuclei fraction [1] [%]	cleaved PARP positive nuclei fraction [2] [%]	cleaved PARP positive nuclei fraction [3] [%]	cleaved PARP positive nuclei fraction [4] [%]	cleaved PARP positive nuclei fraction [5] [%]	cleaved PARP positive nuclei fraction [6] [%]	cleaved PARP positive nuclei fraction [7] [%]	cleaved PARP positive nuclei fraction [8] [%]	cleaved PARP positive nuclei fraction [9] [%]	cleaved PARP positive nuclei fraction [10] [%]
OCc1c[nH]c2ccccc12 [Indole-3-carbinol] + COc1ccc2c(c1)CCC1C2CCC2(C)C(NCCCCCCN3C(=O)C=CC3=O)CCC12 [U73122] (first compound 0.8 µM, partner dose 0.4 µM)	135	120	89.9	157	60.1	74.9	276	78.7	69.8	124
Clc1ccc(Nc2nnc(Cc3ccncc3)c3ccccc23)cc1 [vatalanib] + O=S(=O)(c1ccccc1)N(CC(F)(F)F)c1ccc(C(O)(C(F)(F)F)C(F)(F)F)cc1 [T0901317] (first compound 2 µM, partner dose 1.4 µM)	39.3	51.2	180	36.7	71.9	58.6	491	34.9	89.7	108
Cc1ccc(NC(=O)c2cccc(N(C)C)c2)cc1NC(=O)c1ccc(O)cc1 + CN(NC(=O)CC(=O)NN(C)C(=S)c1ccccc1)C(=S)c1ccccc1 [STA4783] (first compound 2 µM, partner dose 0.006 µM)	141	40.3	51.1	256	84	40.1	76.6	122	69.7	84.4
Cn1c(Nc2ccc(C(F)(F)F)cc2)nc2cc(Oc3ccnc(-c4ncc(C(F)(F)F)[nH]4)c3)ccc21 + Cn1cncc1[C@@](N)(c1ccc(Cl)cc1)c1ccc2c(c1)c(-c1cccc(Cl)c1)cc(=O)n2C [tipifarnib] (first compound 0.08 µM, partner dose 0.01 µM)	74.6	86	689	77.3	88.3	229	116	172	324	101
C[C@]1(c2nc3c(C(N)=O)cccc3[nH]2)CCCN1 [Veliparib] + COc1cc(Nc2ncc(F)c(Nc3ccc4c(n3)NC(=O)C(C)(C)O4)n2)cc(OC)c1OC [Tamatinib] (first compound 1.4 µM, partner dose 0.4 µM)	220	56.7	114	87.5	311	61.4	90.6	52.2	113	90.3
Nc1cccc2c1CN(C1CCC(=O)NC1=O)C2=O (stereo not given) [lenalidomide] + OCCn1cc(-c2cnc3nnn(Cc4ccc5ncccc5c4)c3n2)cn1 [PF04217903] (first compound 1 µM, partner dose 1 µM)	30.2	53.1	34.7	136	67.9	86.6	59.8	25	56	33.2
OCCn1cc(-c2cnc3nnn(Cc4ccc5ncccc5c4)c3n2)cn1 + CN(NC(=O)CC(=O)NN(C)C(=S)c1ccccc1)C(=S)c1ccccc1 [STA4783] (first compound 1 µM, partner dose 0.006 µM)	81.7	32.2	157	73.4	62.2	64.3	65.1	133	84.4	164
CC1(C)NC(=O)N(c2ccc([N+](=O)[O-])c(C(F)(F)F)c2)C1=O [nilutamide] + COc1cc2c(Oc3ccc4[nH]c(C)cc4c3F)ncnc2cc1OCCCN1CCCC1 [cediranib] (first compound 1 µM, partner dose 0.4 µM)	300	80.7	42.8	88.7	59	108	128	103	82.7	42.4
Cc1nc(Nc2ncc(C(=O)Nc3c(C)cccc3Cl)s2)cc(N2CCN(CCO)CC2)n1 [dasatanib] + OCCn1cc(-c2cnc3nnn(Cc4ccc5ncccc5c4)c3n2)cn1 [PF04217903] (first compound 0.004 µM, partner dose 1 µM)	161	39	110	109	112	64.7	59.8	139	150	39.9
Cn1c(Nc2ccc(C(F)(F)F)cc2)nc2cc(Oc3ccnc(-c4ncc(C(F)(F)F)[nH]4)c3)ccc21 + C=CCn1c(=O)c2cnc(Nc3ccc(N4CCN(C)CC4)cc3)nc2n1-c1cccc(C(C)(C)O)n1 [MK1775] (first compound 0.08 µM, partner dose 0.02 µM)	78.1	174	121	192	511	148	104	342	938	1130
OCc1c[nH]c2ccccc12 [Indole-3-carbinol] + COc1cc(N2CCC(N3CCN(C)CC3)CC2)ccc1Nc1ncc(Cl)c(Nc2ccccc2S(=O)(=O)C(C)C)n1 [NVP-TAE684] (first compound 0.8 µM, partner dose 0.08 µM)	130	30.9	333	82	212	67.1	180	165	135	63.8
Clc1ccc(Nc2nnc(Cc3ccncc3)c3ccccc23)cc1 [vatalanib] + Oc1nc(-c2ccc(C(F)(F)F)cc2)nc2c1CSCC2 [XAV939] (first compound 2 µM, partner dose 2 µM)	162	61.2	176	55.1	125	118	39.4	69.8	188	43.9
COCC[n+]1c2c(n(Cc3cnccn3)c1C)C(=O)c1ccccc1C2=O + COc1cc(Nc2ncc(F)c(Nc3ccc4c(n3)NC(=O)C(C)(C)O4)n2)cc(OC)c1OC [Tamatinib] (first compound 0.0004 µM, partner dose 0.4 µM)	218	65.3	127	155	145	120	51.3	172	963	139
C#Cc1cccc(Nc2ncnc3cc(OCCOC)c(OCCOC)cc23)c1 [erlotinib] + CO[C@@H]1[C@H](N(C)C(=O)c2ccccc2)C[C@H]2O[C@]1(C)n1c3ccccc3c3c4c(c5c6ccccc6n2c5c31)C(=O)NC4 [Midostaurin] (first compound 0.8 µM, partner dose 0.08 µM)	86.8	201	75.4	113	59.3	122	74.3	138	47.2	34.6
Clc1ccc(Nc2nnc(Cc3ccncc3)c3ccccc23)cc1 [vatalanib] + NC(=O)Nc1cc(-c2cccc(F)c2)sc1C(=O)N[C@H]1CCCNC1 [AZD7762] (first compound 2 µM, partner dose 0.02 µM)	184	58.9	172	49	213	65.1	58.3	74.8	54.6	31.4
Nc1cccc2c1CN(C1CCC(=O)NC1=O)C2=O (stereo not given) [lenalidomide] + C=CCn1c(=O)c2cnc(Nc3ccc(N4CCN(C)CC4)cc3)nc2n1-c1cccc(C(C)(C)O)n1 [MK1775] (first compound 1 µM, partner dose 0.02 µM)	153	73.6	61.5	40.5	132	150	42.5	32.7	35.9	105
C#Cc1cccc(Nc2ncnc3cc(OCCOC)c(OCCOC)cc23)c1 [erlotinib] + NCC(=O)Nc1ccc(-n2nc(C(F)(F)F)cc2-c2ccc3c(ccc4ccccc43)c2)cc1 [OSU03012] (first compound 0.8 µM, partner dose 1 µM)	129	167	192	62.6	64.2	115	99.9	72	45	54.5
CC(=O)c1c(C)c2cnc(Nc3ccc(N4CCNCC4)cn3)nc2n(C2CCCC2)c1=O [palbociclib] + O=C(O)C(=O)Nc1sc2c(c1C(=O)O)CCNC2 [TCS401] (first compound 0.04 µM, partner dose 1.66667 µM)	178	119	92.4	214	274	95.5	60.5	103	190	127
O=C(CCCCCCC(=O)Nc1ccccc1)NO [vorinostat] + Cc1cc(N2CCOCC2)cc2[nH]c(-c3c(NC[C@@H](O)c4cccc(Cl)c4)cc[nH]c3=O)nc12 [BMS536924] (first compound 0.08 µM, partner dose 0.2 µM)	178	97.4	112	141	90.5	64.7	79.2	61	61.4	53.6
CC(=O)c1c(C)c2cnc(Nc3ccc(N4CCNCC4)cn3)nc2n(C2CCCC2)c1=O [palbociclib] + COc1cc2ncnc(Nc3ccc(Oc4ccccc4)cc3)c2cc1OC [SrcI1] (first compound 0.04 µM, partner dose 2 µM)	201	106	200	189	272	125	75.3	245	357	159
CO[C@@H]1[C@H](N(C)C(=O)c2ccccc2)C[C@H]2O[C@]1(C)n1c3ccccc3c3c4c(c5c6ccccc6n2c5c31)C(=O)NC4 [Midostaurin] + COc1cc2c(Oc3ccc4[nH]c(C)cc4c3F)ncnc2cc1OCCCN1CCCC1 [cediranib] (first compound 0.08 µM, partner dose 0.4 µM)	79.3	236	142	44.8	271	257	65.2	116	81.8	76.6

Single entries from the results shown:
Under cleaved PARP positive nuclei fraction [7] [%], C[C@]1(c2nc3c(C(N)=O)cccc3[nH]2)CCCN1 [Veliparib] + COc1cc(Nc2ncc(F)c(Nc3ccc4c(n3)NC(=O)C(C)(C)O4)n2)cc(OC)c1OC [Tamatinib] (first compound 1.4 µM, partner dose 0.4 µM) has 90.6
Under cleaved PARP positive nuclei fraction [8] [%], OCc1c[nH]c2ccccc12 [Indole-3-carbinol] + COc1cc(N2CCC(N3CCN(C)CC3)CC2)ccc1Nc1ncc(Cl)c(Nc2ccccc2S(=O)(=O)C(C)C)n1 [NVP-TAE684] (first compound 0.8 µM, partner dose 0.08 µM) has 165
